# Values quoted from earlier work as cited in patent US5840936A, “Aminosterol compounds useful as inhibitors of the sodium/proton exchanger (NHE)” (priority 1995, dated 1998).
# For at least one compound, name, drawing or mass did not settle the structure.
# Test system: NHE1
# Conditions: cited from earlier work
structure (smiles),measurement,value
CS(=O)(=O)c1cc(C(=O)N=C(N)N)ccc1N1CCCCC1 [(3-methylsulfonyl-4-piperidinobenzoyl) guanidine methanesulfonate],NHE isoform selectivity,particular selectivity to the NHE1
